# Test results taken from PubChem BioAssay AID540276 (National Center for Advancing Translational Sciences (NCATS), 2011).
# Values joined by “and” are separate entries in the source; they are usually repeats but may differ in a detail not shown here. Equal values may be shown once. In all, about 300,000 compounds went through this assay and about 5,400 (1.8%) were called active. The shares of active, inactive and inconclusive entries below differ from those in the screen. Calls come from the whole dose curve; tested in HEK293 cells. Potencies of inconclusive entries are doubtful fits and often do not repeat.
# Assay: qHTS for inhibitors of binding or entry into cells for Marburg Virus
# Conditions: Marburg virus pseudotyped entry inhibition, cell reporter; series mostly up to 37.8 µM
# Potency is the fitted concentration of half-maximal effect.
row,SMILES,Potency
1,COc1ccc(N2CCN(C(=O)COC(=O)CCOc3ccc(C)cc3)CC2)cc1,inactive
2,CCN(Cc1ccccc1)S(=O)(=O)c1ccc(C(=O)Nc2nnc(-c3ccccc3OC)o2)cc1,"inconclusive: 11.2 µM [inhibitor, partial curve, poor fit]"
3,Cc1cccc(-n2c(SCC(=O)Nc3nnc(C)s3)nnc2-c2ccoc2C)c1,"inconclusive: 2.51 µM [inhibitor, partial curve, poor fit]"
4,CC1(C)CSC(C)(C)C(=O)N1,"inconclusive: 5.62 µM [activator, full curve, poor fit]"
5,Cc1cccc(-c2noc(-c3ccc(N4CCOCC4)c([N+](=O)[O-])c3)n2)c1,"inconclusive: 5.62 µM [activator, single point]"
6,COc1ccccc1NS(=O)(=O)c1cc(NC(=O)c2ccccc2F)ccc1N1CCOCC1,"inconclusive: 8.91 µM [inhibitor, partial curve, poor fit]"
7,COc1ccc(C(=O)Nc2ccccc2C(=O)N(Cc2ccco2)C(C(N)=O)C(C)C)cc1 (configuration not stated),"inconclusive: 29.1 µM [inhibitor, single point]"
8,CCCC(=O)NC(=S)Nc1cccc(NC(=O)c2ccc(Cl)cc2Cl)c1,"inconclusive: 6.31 µM [activator, full curve, poor fit]"
9,CCC(=O)N/C(=N/c1nc(C)cc(C)n1)Nc1ccccc1,inactive
10,CC(C)(C)C1CCc2oc3ccc(NS(=O)(=O)c4ccc(C(=O)O)cc4)cc3c2C1 (configuration not stated),"inconclusive: 35.5 µM [activator, single point]"
11,O=C(N/N=C/c1ccc(O)cc1)c1nc(-c2ccccc2)n(-c2ccccc2)n1,"inconclusive: 0.355 µM [activator, partial curve, poor fit]"
12,Cc1[nH]n(-c2ccc(Cl)cc2)c(=O)c1C(=O)c1ccccc1,"inconclusive: 7.08 µM [inhibitor, full curve, poor fit]"
13,CNC(=S)N/N=C/c1ccc(-c2cccc(C(=O)O)c2)o1,"inconclusive: 7.3 µM [inhibitor, partial curve, poor fit]"
14,CC(=O)c1sc(NS(=O)(=O)c2ccc(C)cc2)nc1C,"inconclusive: 17.8 µM [activator, single point]"
15,Cc1cc(C)c(NC(=O)C2CCN(c3nn4c(=O)cc(C)nc4s3)CC2)c(C)c1,inactive
16,O=C(NC1CCCCC1)N1CCCC(CNS(=O)(=O)Cc2ccccc2)C1 (configuration not stated),inactive
17,COc1ccc(OCC(O)Cn2c(NCCO)nc3c2c(=O)n(C)c(=O)n3C)cc1 (configuration not stated),"inconclusive: 10 µM [inhibitor, partial curve, poor fit]"
18,Cc1ccc([N+](=O)[O-])cc1S(=O)(=O)Nc1ccc(-c2ccc(N3CCCC3)nn2)cc1,"inconclusive: 35.5 µM [inhibitor, single point]"
19,CC(C)c1ccc(S(=O)(=O)N2CCN(C(C)C(=O)Nc3ccccc3-c3ccccc3)CC2)cc1 (configuration not stated),"inconclusive: 7.08 µM [inhibitor, partial curve, poor fit]"
20,CCOC(=O)c1cc(C)sc1/N=C/C1C(=O)CC(C)(C)CC1=O,"inconclusive: 5.62 µM [activator, single point]"
21,CCS(=O)(=O)Nc1cccc(C2=NN(S(=O)(=O)c3ccccc3)C(c3cccs3)C2)c1 (configuration not stated),"inconclusive: 32.6 µM [inhibitor, single point]"

row,SMILES,Potency
1,Cc1ccc(-c2cc(C(=O)Nc3cccc(S(=O)(=O)N(C)C)c3)c3ccccc3n2)o1,"inconclusive: 20 µM [inhibitor, single point]"
2,Cc1ccccc1NC(=O)COc1coc(CN2CCCc3ccccc32)cc1=O,"inconclusive: 35.5 µM [inhibitor, single point]"
3,CC(=O)Nc1ccc(NC(=O)C(C)c2cccc(C(=O)c3ccccc3)c2)cc1 (configuration not stated),inactive
4,CCC(C)c1ccc(NC(=O)C2CCN(c3ncccn3)CC2)cc1 (configuration not stated),"inconclusive: 8.2 µM [inhibitor, partial curve]"
5,CCCC(C)(COC(N)=O)COC(=O)NC(C)C (configuration not stated),"inconclusive: 15.8 µM [inhibitor, partial curve] and inconclusive: 23.1 µM [activator, partial curve, poor fit]"
6,CC(=O)Nc1ccc(-c2ccccc2)s1,"inconclusive: 35.5 µM [activator, single point]"
7,COc1ccc(C(=O)CN2C(=O)NC3(CCCCCC3)C2=O)cc1,"inconclusive: 14.1 µM [activator, single point]"
8,COCC(=O)n1nc(-c2ccccc2)nc1NCc1ccc(F)cc1,inactive
9,COc1cc(Br)cc(C2C3=C(CCCC3=O)N(c3ccc(F)cc3)C3=C2C(=O)CCC3)c1O,"inconclusive: 35.5 µM [inhibitor, partial curve, poor fit]"
10,Cc1ccc(NC(=O)c2ccc(C)c(S(=O)(=O)N3CCOCC3)c2)nc1,"inconclusive: 1.26 µM [inhibitor, single point]"
11,COc1cc(CN(C(=S)NCC(=O)O)C2CCCC2)cc(OC)c1OC,"inconclusive: 3.98 µM [inhibitor, single point]"
12,CCC(C)NC(=O)/C=C/c1cccs1 (configuration not stated),"inconclusive: 2.51 µM [inhibitor, partial curve, poor fit]"
13,O=C(Cn1nc(C(=O)O)c2ccccc2c1=O)Nc1cc(Cl)cc(Cl)c1,"inconclusive: 17.8 µM [inhibitor, single point]"
14,Cc1cc(N)ccc1S(C)(=O)=O,inactive
15,NNc1n[nH]c(=S)n1N,"inconclusive: 35.5 µM [inhibitor, single point]"
16,CC(=O)N(CC(=O)O)c1ccccc1,"inconclusive: 3.98 µM [activator, single point]"
17,COc1cccc(NC2=NCCCCC2)c1,inactive
18,CCOC(=O)C1CCN(C(=O)CCS(=O)(=O)c2ccc3c(c2)CC(C)N3C(=O)CC)CC1 (configuration not stated),inactive
19,CSCCC(C(=O)OCC(=O)c1ccc(C)c(C)c1)N1C(=O)c2cc(Cl)c(Cl)cc2C1=O (configuration not stated),"inconclusive: 0.116 µM [inhibitor, full curve, poor fit]"
20,CCc1c(C(=O)NC2CCCCC2)[nH]c(C)c1C(C)=O,inactive
21,Cc1ccnc(NC(=O)Nc2ccc3c(c2)OCO3)c1,"inconclusive: 11.2 µM [inhibitor, single point]"

row,SMILES,Potency
1,CSc1nc(Cl)cc(Nc2ccccc2N)n1,"inconclusive: 3.16 µM [activator, single point]"
2,CSc1ccc(C(=O)C2CCCN(C)C2)cc1 (configuration not stated),"inconclusive: 3.16 µM [activator, single point]"
3,CCS(=O)(=O)CCSc1nc(C)cc(C)n1,"inconclusive: 6.31 µM [activator, partial curve, poor fit]"
4,Cc1cc2c(c(=O)n1Cc1ccccc1)[C@H]1O[C@](CCCCN3C(=O)c4ccccc4C3=O)(Cc3ccccc31)O2,"inconclusive: 0.119 µM [activator, full curve, poor fit]"
5,Cc1ccc(-c2ccc(=O)n(Cc3c(F)cccc3Cl)n2)cc1,"inconclusive: 35.5 µM [inhibitor, single point]"
6,Cc1ccc(C2C(C#N)=C(N)Oc3n[nH]c(C)c32)cc1 (configuration not stated),"inconclusive: 29.1 µM [inhibitor, single point]"
7,COc1ccc(-c2nnn(CC(=O)N(CCCN3CCOCC3)C(C(=O)NC3CCCC3)c3ccco3)n2)cc1 (configuration not stated),"inconclusive: 5.01 µM [inhibitor, full curve, poor fit]"
8,COc1ccc(NC(=O)CN(C)C(=O)c2cccc(NS(=O)(=O)c3ccc(Br)cc3)c2)cc1,"inconclusive: 3.98 µM [inhibitor, full curve]"
9,Cc1cc(NC(=O)Cn2nc(C(=O)O)c3ccccc3c2=O)ccc1Br,"inconclusive: 35.5 µM [inhibitor, single point]"
10,COc1ccc(NC(=O)c2cn(-c3ccccc3)nc2-c2cc3ccccc3o2)cc1,"inconclusive: 35.5 µM [inhibitor, single point]"
11,COc1cccc(-n2c(SCC(N)=O)nc3c([nH]c4ccccc43)c2=O)c1,"inconclusive: 0.891 µM [activator, single point]"
12,Cc1ccc(NC(=O)[C@H](Cc2ccccc2)NC(=O)[C@@H]2Cc3ccccc3CN2)c(C)c1,"inconclusive: 11.2 µM [inhibitor, partial curve, poor fit]"
13,O=C(Nc1cccc2nsnc12)c1ccc(F)cc1,inactive
14,CCOc1ccc(C2C=C(c3ccccc3)Nc3ncnn32)cc1 (configuration not stated),inactive
15,Cc1cccc2c1N(Cc1ccccc1OCCC(C)C)C(=O)C2=O,"inconclusive: 15.8 µM [inhibitor, single point]"
16,COc1ccc(-c2nc3c(c4c2C[C@H](c2ccccc2)OC4)CN(S(=O)(=O)c2ccc(C)cc2)CC3)c(C)c1,"inconclusive: 3.35 µM [inhibitor, single point]"
17,COc1ccc(N(CC(=O)N2CCN(c3ccc(Cl)cc3)CC2)S(=O)(=O)c2c(C)n[nH]c2C)cc1,"inconclusive: 22.4 µM [inhibitor, partial curve, poor fit]"
18,COc1cccc(CNC(=O)Cn2nc(-c3ccc(Cl)cc3)ccc2=O)c1,"inconclusive: 0.231 µM [inhibitor, single point]"
19,Brc1ccc(-c2cnnc(N3CCCC3)n2)cc1,"inconclusive: 7.94 µM [activator, partial curve, poor fit]"
20,COc1cccc(-n2c(-c3ccc4[nH]c(C)c(C)c4c3)n[nH]c2=S)c1,"inconclusive: 35.5 µM [inhibitor, single point]"

# Taken from above:
# Value for Cc1cccc(-c2noc(-c3ccc(N4CCOCC4)c([N+](=O)[O-])c3)n2)c1 under Potency: inconclusive: 5.62 µM [activator, single point]
# Value for CC(C)c1ccc(S(=O)(=O)N2CCN(C(C)C(=O)Nc3ccccc3-c3ccccc3)CC2)cc1 (configuration not stated) under Potency: inconclusive: 7.08 µM [inhibitor, partial curve, poor fit]
